Results reported in patent US8633179B2, “Synergistic interaction of NOTCH-1 inhibitors with glucocorticoids” (priority 2007, dated 2014).
For at least one compound, name, drawing or mass did not settle the structure.

Tested on: CUTLL1 cells expressing luciferase
Conditions: end of the observation period (10 weeks), vs. controls

**Q.** `C[C@@H]1C[C@H]2[C@@H]3CCC4=CC(=O)C=C[C@]4(C)[C@@]3(F)[C@@H](O)C[C@]2(C)[C@@]1(O)C(=O)CO` [dexamethasone] was tested. Which survival did it give?
**A.** lacked an effect on survival
